Some of the results follow. These are further read-outs of the screen, such as a control signal, another cell line or another target. No call is given for them. Compounds called inactive in the main read-out are mostly missing here. Words in brackets tell the shape of the fitted curve; partial curves, single points and poor fits give uncertain potencies.
Assay: qHTS Assay for Lipid Storage Modulators in Drosophila S3 Cells;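 as to cell number change: cells counted by Cell Tracker Red CMTPX staining in the red channel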
Conditions: BODIPY lipid droplet fluorescence, 18-24 h; for cell number change: measured here: cell count max response, cells fed with added oleic acid
Method in brief: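 Drosophila S3 cells loaded with oleic acid (400 uM, as added) and compounds at several concentrations; lipid droplets imaged by 488-nm laser-scanning cytometry, 500–530 nm intensity and object ratio to cell channel. Percent activity normalized to 20 uM Triacsin C.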

[1] = measured here: lipid fluorescence (Fed channel) AC50, cells fed with added oleic acid
[2] = measured here: cell number channel AC50, cells fed with added oleic acid

| SMILES | cell number change [%] | AC50 [1] | AC50 [2] |
| --- | --- | --- | --- |
| Cn1ncc(Cl)c1C(=O)N1CCCc2ccccc21 | -17.3 | 29.1 µM [rising, single point] |  |
| CN(C)c1nn(C(=O)Nc2ccc(Cl)cc2Cl)cc1-c1ccccc1 | -50.5 |  | 2.06 µM [falling, full curve, poor fit] |
| COc1ccc(CN(C)C(=O)c2ccc3ccccc3n2)cc1F | -11.5 | 29.1 µM [rising, single point] |  |
| CCC(C)NS(=O)(=O)c1ccc(OCC(=O)NCc2ccccn2)cc1 (configuration not stated) | -8.14 |  | 6.51 µM [falling, single point] |
| CCNS(=O)(=O)c1ccc(NC(=O)Nc2cccc(C(F)(F)F)c2)cc1 | -47 | 0.13 µM [falling, full curve, poor fit] | 29.1 µM [falling, single point] |
| O=C(Nc1ccc2cn[nH]c2c1)c1ccc(Cl)c(S(=O)(=O)N2CCOCC2)c1 | 24 | 0.58 µM [rising, full curve] |  |
| Cc1ccc(C)c(C(C)NC(=O)C2CCCC2)c1 (configuration not stated) | -18.1 | 6.51 µM [rising, single point] |  |
| O=C(COc1ccccc1)Nc1nnc(-c2ccc(F)cc2)o1 |  | 6.51 µM [rising, single point] |  |
| Cc1ccc(SCC2(O)CCN(C(=O)c3ccc(Cl)cc3)CC2)cc1 | -22.3 | 29.1 µM [falling, single point] | 0.517 µM [rising, full curve] |
| Cc1cccc(C)c1NC(=O)C(NC=O)c1ccc(N(C)C)cc1 (configuration not stated) | 2.97 | 1.64 µM [falling, partial curve, poor fit] | 1.64 µM [falling, partial curve, poor fit] |
| Cc1ccc(S(=O)(=O)CCC(=O)Nc2nnc(-c3ccco3)o2)cc1 | 11.2 |  |  |
| COc1ccc(NC(=O)CCC(=O)N2CCOCC2)c([N+](=O)[O-])c1 | 12.3 |  |  |
| Cc1cc(C)c2c(N)c(C(=O)NN)sc2n1 | 11 |  | 4.11 µM [rising, single point] |
| CCN1CCN(c2oc(-c3ccccc3)nc2S(=O)(=O)c2ccc(C)cc2)CC1 | 69.4 |  | 16.4 µM [rising, single point] |
| CC(NC(=O)C(NS(=O)(=O)c1cccs1)C(C)C)c1ccc(S(N)(=O)=O)cc1 (configuration not stated) | -16.3 | 5.8 µM [falling, full curve, poor fit] |  |
| CN1C(=O)C(=O)/C(=C(/O)c2ccc(Br)cc2)C1c1ccc(F)cc1 (configuration not stated) | -21.7 | 0.0517 µM [falling, full curve, poor fit] |  |

Not a retest: an excerpt of the list.

| SMILES | cell number change [%] | AC50 [1] | AC50 [2] |
| --- | --- | --- | --- |
| Cc1cc(C)c2c(N)c(C(=O)NN)sc2n1 | 11 |  | 4.11 µM [rising, single point] |
| CCN1CCN(c2oc(-c3ccccc3)nc2S(=O)(=O)c2ccc(C)cc2)CC1 | 69.4 |  | 16.4 µM [rising, single point] |
